The assay can be described thus: qHTS Assay for Lipid Storage Modulators in Drosophila S3 Cells.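 For cell number change: cells counted by Cell Tracker Red CMTPX staining in the red channel.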 Conditions: BODIPY lipid droplet fluorescence, 18-24 h; for cell number change: measured here: cell count max response, cells fed with added oleic acid. In a few lines:
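Laser-scanning cytometry quantifies lipid droplet accumulation (500–530 nm total intensity; droplet/cell object ratio) in oleic acid-fed (400 uM added) Drosophila S3 cells treated with a concentration series. 20 uM Triacsin C defined 100% inhibition.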
In general terms: Quantitative high-throughput screening tests each substance at several concentrations.

Where [1] appears, read: measured here: lipid fluorescence (Fed channel) AC50, cells fed with added oleic acid.
The mark [2] stands for this setting: measured here: cell number channel AC50, cells fed with added oleic acid.

Some of the results follow. These are further read-outs of the screen, such as a control signal, another cell line or another target. No call is given for them. Most of these compounds were active or inconclusive in the main read-out, so they are no random draw. Words in brackets tell the shape of the fitted curve; partial curves, single points and poor fits give uncertain potencies.

As usually defined, the AC50 is the midpoint of the concentration-response curve, whichever way the signal moves. Regarding `COC(=O)c1sccc1N/N=C/c1cccc(OC)c1O`, the cell number change stood at 11.8%. Also, the half-maximal activity concentration (AC50) under setting [1] was 2.31 µM [rising, partial curve, poor fit].
Take `CC(C)CNC(=O)c1ccccc1-c1ccccc1C(=O)O`: the cell number change was -22.6%. Besides, the half-maximal activity concentration (AC50) under setting [1] is 6.51 µM [falling, single point].
Take `CC1C/C(=N/O)C(C)CN1` (stereo not given): the cell number change is -0.809%.
As for `O=C(COc1ccc([N+](=O)[O-])cc1)Nc1nnc(-c2cccnc2)s1`, the cell number change was -28.3%. Moreover, the half-maximal activity concentration (AC50) under setting [1] is 18.4 µM [falling, single point].
With `CCCCn1c(N)c(N(CC)C(=O)c2cccc(OC)c2)c(=O)[nH]c1=O`, the cell number change came out at 16.9%. Besides, the half-maximal activity concentration (AC50) under setting [1] was 25.9 µM [falling, single point].
Take `COc1ccc(OC)c(NC(=O)CN(c2ccc(OC)c(Cl)c2)S(C)(=O)=O)c1`: the cell number change is -31.2%. In addition, the AC50 under setting [2] was 0.13 µM [falling, full curve].
For the compound `O=C(NC1CCCCC1)N1CCN(c2ncccn2)CC1`, the cell number change was 117%. In addition, the half-maximal activity concentration (AC50) under setting [1] was 1.64 µM [falling, partial curve].
Turning to `O=C(O)c1ccc(CNS(=O)(=O)c2ccc3ccccc3c2)cc1`, the cell number change was 20.7%. In addition, under setting [1], the AC50 is 0.58 µM [falling, single point].
Consider `Cc1cccc(C)c1NS(=O)(=O)c1ccc(-c2ccc(=O)[nH]n2)o1`, for which the AC50 under setting [1] is 14.6 µM [falling, partial curve].
`CN(Cc1ccsc1)C(=O)CCc1nnc(CCCc2ccccc2)o1`: the cell number change was -10.4%. Also, under setting [1], the half-maximal activity concentration (AC50) was 23.1 µM [falling, single point].
Take `Cn1c(=O)c2c(SC3CCCC3)nc(C3CC3)nc2n(C)c1=O`: the cell number change was -7.92%.
Take `Cc1ccc(CNC(=O)NC23CC4CC(CC(C4)C2)C3)cc1`: the cell number change is -1.49%. In addition, under setting [2], the AC50 was 0.164 µM [falling, full curve, poor fit]. Besides, the AC50 under setting [1] is 0.164 µM [falling, full curve, poor fit].
In the case of `Cc1cc(C(=O)C(=O)N(C)C)c(C)n1-c1ccc(Cl)c(Cl)c1`, the cell number change is -20.6%. In addition, the AC50 under setting [2] is 0.651 µM [falling, full curve, poor fit].
Turning to `Cc1ccc(NC(=O)CCn2c(=O)[nH]c3ccsc3c2=O)cc1`, the AC50 under setting [1] was 29.1 µM [falling, single point].
As for `COC(=O)c1ccc(NCC(=O)N2CCCCCC2)cc1`, the cell number change stood at 60.9%. The AC50 under setting [2] was 29.1 µM [rising, single point].
With `COC(=O)c1ccc(NC(=O)C2CCN(C(=O)Nc3ccccc3)CC2)cc1`, the cell number change is -9.27%. The AC50 under setting [1] was 2.31 µM [falling, partial curve, poor fit].
As to `Cc1ccccc1Cn1ccc(NC(=O)c2cnn3c(C(F)(F)F)cc(-c4ccco4)nc23)n1`, the cell number change amounted to 68%. For the same compound, the concentration at half-maximal activity (AC50) under setting [2] was 18.4 µM [rising, single point].
Turning to `Cc1ccc(S(=O)(=O)Nc2cc(C(=O)O)ccc2N2CCCCC2)cc1`, the AC50 under setting [1] was 6.51 µM [rising, single point].
Take `O=C(NCc1ccco1)C1CCCN1S(=O)(=O)c1ccccc1C(F)(F)F` (stereo not given): the cell number change was -18.7%. Also, under setting [1], the concentration at half-maximal activity (AC50) is 0.58 µM [falling, full curve].
Regarding `CC1CCCC(C)N1S(=O)(=O)c1ccc(NC(=O)CCn2cnc3ccccc3c2=O)cc1` (stereo not given), the cell number change was -2.8%. Further, under setting [2], the concentration at half-maximal activity (AC50) was 1.46 µM [rising, partial curve, poor fit].
Regarding `Cc1cc(C(=O)COC(=O)Cc2n[nH]c(=O)c3ccccc23)c(C)n1-c1ccc2c(c1)OCCO2`, the cell number change was -22.4%. Also, under setting [1], the half-maximal activity concentration (AC50) is 18.4 µM [falling, single point].
For the compound `CCOC(=O)CCC(=O)Nc1cc(S(=O)(=O)N2CCOCC2)ccc1N1CCCCC1`, the cell number change is -11.5%. Moreover, the AC50 under setting [1] was 0.517 µM [rising, full curve].
Consider `O=C(COC(=O)Cn1cnc2ccccc2c1=O)Nc1ccc(Cl)c(C(F)(F)F)c1`, for which the cell number change was -11%. In addition, the half-maximal activity concentration (AC50) under setting [1] is 3.66 µM [rising, full curve].
For `CCOc1ccc(Br)cc1S(=O)(=O)Nc1ccc(C(=O)OCC(=O)N(C)c2ccccc2)cc1`, the cell number change was determined as 46.4%. Besides, the AC50 under setting [2] is 14.6 µM [rising, partial curve, poor fit].
With `Cc1cccc(C(=O)NCCNC(=O)c2cccnc2)c1`, the cell number change was -28.9%. In addition, under setting [2], the half-maximal activity concentration (AC50) was 0.0517 µM [falling, full curve, poor fit].
For the compound `CCOc1ccc(N2CC(C(=O)NCc3ccc4c(c3)OCO4)CC2=O)cc1` (stereo not given), the cell number change turned out to be 6.94%. In addition, the AC50 under setting [1] was 6.51 µM [falling, partial curve, poor fit].
Regarding `CCn1cc(/C=C(\NC(=O)c2ccccc2Cl)C(=O)N2CCN(C)CC2)c2ccccc21`, the cell number change came to 31.6%. The concentration at half-maximal activity (AC50) under setting [2] is 6.51 µM [rising, partial curve, poor fit]. Further, under setting [1], the AC50 is 29.1 µM [rising, single point].
For `Cc1c(S(=O)(=O)N2CCN(C(=O)c3ccco3)CC2)c(=O)n(C)c(=O)n1C`, the cell number change was -92.9%. Under setting [2], the AC50 was 29.1 µM [falling, single point]. For the same compound, under setting [1], the AC50 was 29.1 µM [falling, partial curve].
Consider `O=C(OCc1cccc([N+](=O)[O-])c1)c1cnccn1`, for which the cell number change came out at 22.1%.
Consider `NC(=O)C1(c2ccccc2)CCOCC1`, for which the cell number change is -17.9%. The half-maximal activity concentration (AC50) under setting [1] is 1.3 µM [falling, full curve, poor fit].
Regarding `COC(=O)CSc1nccc(-c2cccs2)n1`, the cell number change was -24.4%. Besides, the half-maximal activity concentration (AC50) under setting [2] is 0.058 µM [falling, full curve, poor fit].
`Cc1ccc(C)c(Oc2coc3cc(OCC(=O)Nc4ccccc4C(C)C)ccc3c2=O)c1`: the cell number change is -9.28%.
`Cc1ccccc1Cn1nc(C)c(NC(=O)c2cc(CC(C)C)on2)c1C`: the cell number change came to 5.68%. Moreover, the half-maximal activity concentration (AC50) under setting [1] is 1.3 µM [rising, full curve, poor fit].
For the compound `Cc1ccc(C2C(C#N)=C3N=C(N)c4ccccc4N3C3=C2C(=O)CCC3)cc1` (stereo not given), the cell number change worked out at 14.7%. The AC50 under setting [2] is 0.517 µM [rising, full curve, poor fit]. Further, the AC50 under setting [1] is 3.26 µM [rising, single point].
Regarding `O=C(CSc1nnc2c(n1)[nH]c1ccc(F)cc12)NCc1ccc(F)cc1`, the cell number change came to 87.8%. For the same compound, the half-maximal activity concentration (AC50) under setting [2] is 23.1 µM [rising, partial curve].
On to `COCCn1c(-c2ccc(NC(C)=O)cc2)nc2c1c(=O)[nH]c(=O)n2CC(C)C`, for which the cell number change was 4.17%. Also, the AC50 under setting [1] was 6.51 µM [falling, single point].
As to `CCN1CCN(c2ccc(S(=O)(=O)N3CCCCC3)cc2NC(=O)/C=C/c2cccc(OC)c2OC)CC1`, the cell number change is -12.4%. Also, the half-maximal activity concentration (AC50) under setting [1] was 11.6 µM [falling, single point].
On to `COc1cc(C2C(=O)c3ccccc3C2=O)ccc1O`, for which the cell number change is -33.1%.
As to `CCCCCCn1c(N)c(C#N)c2ccc([N+](=O)[O-])cc2c1=O`, the cell number change stood at 11%. Further, under setting [2], the concentration at half-maximal activity (AC50) is 1.16 µM [rising, full curve, poor fit]. The half-maximal activity concentration (AC50) under setting [1] was 1.46 µM [rising, partial curve].
With `CCc1cc(/C(Cc2ccccn2)=N\O)c(O)cc1O`, the cell number change is -12.2%. In addition, under setting [1], the half-maximal activity concentration (AC50) is 16.4 µM [falling, single point].
As for `Cn1c(CSCc2ccc(F)cc2)nnc1SCC(=O)Nc1nccs1`, the cell number change is -24.3%. For the same compound, under setting [1], the AC50 is 10.3 µM [rising, single point].
On to `CCCN(CC(=O)Nc1ccc(Cl)cc1Cl)C(=O)/C=C/c1ccco1`, for which the cell number change is -16.7%. For the same compound, the AC50 under setting [1] is 9.2 µM [falling, single point].
In the case of `Cc1ccc2nc(-c3ccc(NC(=S)NC4CC(C)(C)NC(C)(C)C4)cc3)sc2c1`, the cell number change was -48.5%. In addition, the concentration at half-maximal activity (AC50) under setting [2] was 1.3 µM [falling, full curve]. For the same compound, the AC50 under setting [1] is 20.6 µM [falling, single point].
For the compound `COc1ccc(N=C2C(=Nc3ccc(OC)cc3)N(c3ccc(OC)cc3)C(=S)N2c2ccccc2)cc1`, the cell number change was -38%. Moreover, the half-maximal activity concentration (AC50) under setting [2] is 3.66 µM [falling, full curve].
Turning to `CC1(C(=O)O)CCC(C(=O)Nc2ccc(S(N)(=O)=O)cc2)C1(C)C` (stereo not given), the cell number change was 11.4%. Besides, the AC50 under setting [1] was 0.326 µM [rising, partial curve, poor fit].
Take `Cc1ccc(C(=O)NCCSCc2ccc(Cl)cc2Cl)cc1[N+](=O)[O-]`: the cell number change turned out to be 33%. The AC50 under setting [2] was 32.6 µM [rising, single point]. Besides, under setting [1], the AC50 was 5.17 µM [rising, partial curve, poor fit].
For the compound `CCc1cc(-c2[nH]ncc2-c2ccc3c(c2)OCO3)c(O)cc1O`, the cell number change was -55.6%. Besides, the concentration at half-maximal activity (AC50) under setting [2] was 23.1 µM [falling, partial curve]. The AC50 under setting [1] was 25.9 µM [falling, partial curve].
As to `O=C(Nc1ccnn1C1CCN(C(=O)CCc2ccc(F)cc2)CC1)C1CCOC1` (stereo not given), the cell number change was -9.42%. Also, the AC50 under setting [1] was 3.16 µM [falling, single point].
With `Cc1cccnc1NC(=S)Nc1ccc(Br)cc1Cl`, the cell number change is -9.49%.
In the case of `COc1ccc(NC(=O)CN2CCN(CC(=O)Nc3ccccc3F)CC2)cc1OC`, the cell number change is 17%.
As for `O=C(Nc1cc(=O)[nH]c(=O)[nH]1)c1cc(Cl)ccc1Cl`, the cell number change was determined as 16.1%. Moreover, under setting [2], the concentration at half-maximal activity (AC50) was 0.0731 µM [rising, full curve, poor fit].
Take `COc1ccccc1C(=O)Nc1c[nH]c(=O)[nH]c1=O`: the cell number change is -3.85%. Besides, the AC50 under setting [1] was 29.1 µM [falling, single point].
`Cc1nc(-c2ccc(NC(=O)Cc3ccccc3)cc2)cs1`: the cell number change was 319%.
In the case of `N/C(=N\OC(=O)Cc1ccc(Cl)cc1)c1cccnc1`, the cell number change was -4.61%.
As for `O=C(Nc1nnc(-c2ccc3c(c2)CCCC3)o1)c1ccccc1`, the cell number change turned out to be 4.9%. For the same compound, the AC50 under setting [2] is 6.51 µM [falling, single point].
In the case of `CCOCc1nnc(NC(=O)CSc2ccccc2)s1`, the cell number change worked out at 96.6%. Further, the half-maximal activity concentration (AC50) under setting [2] is 18.4 µM [rising, single point]. Also, the concentration at half-maximal activity (AC50) under setting [1] was 29.1 µM [rising, single point].
In the case of `CCOC(=O)N1CCN(S(=O)(=O)c2ccc(C(=O)N(CCN(CC)CC)c3nc4c(C)cccc4s3)cc2)CC1`, the cell number change was found to be 39.7%. Also, the concentration at half-maximal activity (AC50) under setting [2] is 35.5 µM [rising, partial curve]. In addition, the AC50 under setting [1] is 35.5 µM [rising, partial curve, poor fit].
`Cc1ccc2[nH]c(C)c(CCNC(=O)c3c(N)no[n+]3[O-])c2c1`: the cell number change is -22.6%. The AC50 under setting [1] was 29.1 µM [falling, single point].
As to `C#CCOCCOCCOCCNc1nc(N2CCN(C(=O)CCCCCCCCCCNC(=O)[C@H]([C@@H](C)CC)n3cc(CCCCCN)nn3)CC2)nc(N2CCN(C(=O)CCCCCCCCCCNC(=O)[C@H](CO)n3cc(CCCCCN)nn3)CC2)n1`, the AC50 under setting [1] is 1.84 µM [falling, partial curve, poor fit].

For the origin of these results see PubChem BioAssay AID2685 (National Center for Advancing Translational Sciences (NCATS), 2010).
